Source: article PMC3879356
These are yes or no findings as the source states them, for the method shown. Some results given as binding are weak or reduced against the parent protein; the word gives no strength.

Sequences of proteins named here, by UniProt entry; tags and fusion partners are left off.
UniProt P49069: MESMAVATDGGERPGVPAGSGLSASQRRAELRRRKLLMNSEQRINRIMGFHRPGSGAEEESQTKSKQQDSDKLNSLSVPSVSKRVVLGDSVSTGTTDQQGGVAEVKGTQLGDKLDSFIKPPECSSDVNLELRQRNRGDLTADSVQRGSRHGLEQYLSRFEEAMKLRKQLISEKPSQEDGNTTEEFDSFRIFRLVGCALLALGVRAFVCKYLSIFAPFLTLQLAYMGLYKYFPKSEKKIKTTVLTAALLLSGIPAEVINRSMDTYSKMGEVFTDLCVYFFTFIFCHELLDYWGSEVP
UniProt P40056: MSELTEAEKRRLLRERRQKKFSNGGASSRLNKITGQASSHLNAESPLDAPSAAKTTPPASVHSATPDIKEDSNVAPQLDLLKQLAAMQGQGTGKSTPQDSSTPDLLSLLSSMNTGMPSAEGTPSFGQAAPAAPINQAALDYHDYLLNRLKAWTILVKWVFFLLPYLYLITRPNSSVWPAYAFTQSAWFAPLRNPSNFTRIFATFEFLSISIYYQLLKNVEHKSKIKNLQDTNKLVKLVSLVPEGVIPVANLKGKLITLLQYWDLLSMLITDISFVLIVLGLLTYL

Biological target: T1, WRB-Cub-LexA (split-ubiquitin bait) (UniProt O00258)
T1 sequence: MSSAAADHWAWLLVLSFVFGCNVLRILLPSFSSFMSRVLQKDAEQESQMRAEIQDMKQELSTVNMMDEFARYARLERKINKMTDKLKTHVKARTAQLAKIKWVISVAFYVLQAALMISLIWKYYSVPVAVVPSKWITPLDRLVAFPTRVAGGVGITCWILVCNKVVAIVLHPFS
Experiment: two-hybrid; split-ubiquitin yeast two-hybrid in S. cerevisiae NMY51; WRB-Cub-LexA bait, N-ubiquitin-tagged preys; serial dilutions spotted on HC-ura-trp or HC-ura-trp-his plates

| binding | Substance |
| --- | --- |
| binds | CAML, N-ubiquitin-tagged (split-ubiquitin prey) (from UniProt P49069 1-296) |
| no binding | Get2, N-ubiquitin-tagged (split-ubiquitin prey) (from UniProt P40056 1-285) |
